{"source": "paper PMC7889586", "about": "“Effects of Conserved Wedge Domain Residues on DNA Binding Activity of Deinococcus radiodurans RecG Helicase”", "key": {"[1]": {"target": "T1, DrRecG-WD FSA Q201F,P202S,W203A (Deinococcus radiodurans R1) (UniProt Q9RT50)", "T1 sequence (looked up)": "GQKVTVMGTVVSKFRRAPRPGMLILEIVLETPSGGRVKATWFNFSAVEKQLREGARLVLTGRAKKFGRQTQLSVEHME", "assay": "EMSA", "details": "100 nM HJ, dramatically reduced vs DrRecG-WD WT, 5 mM EDTA, 50 mM Tris-HCl pH 8.0, 5 mM EDTA, 1 mM DTT, 100 ug/ml BSA, 6% glycerol, on ice 15 min, 6% polyacrylamide gel at room temperature, recombinant protein, residues 158-235, protein details: MBP (N-terminal fusion, pMAL-c2x), folded or branched DNA"}, "[2]": {"target": "T2, EcRecG-WD WT (Escherichia coli MG1655) (UniProt P24230)", "T2 sequence (looked up)": "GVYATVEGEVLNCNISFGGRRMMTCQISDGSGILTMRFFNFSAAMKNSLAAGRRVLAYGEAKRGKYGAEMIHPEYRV", "assay": "EMSA", "details": "100 nM HJ, no saturation up to 640 nM protein, 5 mM EDTA, 50 mM Tris-HCl pH 8.0, 5 mM EDTA, 1 mM DTT, 100 ug/ml BSA, 6% glycerol, on ice 15 min, 6% polyacrylamide gel at room temperature, recombinant protein, residues 59-135, protein details: MBP (N-terminal fusion, pMAL-c2x), folded or branched DNA"}}, "note": "Weaker means in comparison with the reference protein, sequence or condition of that experiment. Protein sequences can lack the tags named with them.", "data": [{"sequence": "GTCGGATCCTCTAGACAGCTCCATGATCACTGGCACTGGTAGAATTCGGC / CAACGTCATAGACGATTACATTGCTACATGGAGCTGTCTAGAGGATCCGA / TGCCGAATTCTACCAGTGCCAGTGATGGACATCTTTGCCACGTTGACCC / TGGGTCAACGTGGGCAAGATGTCCTAGCAATGTAATCGTCTATGACGT [Holliday junction (oligos 1-4)]", "values": [{"measurement": "binding result", "setting": "[1]", "value": "binds more weakly"}, {"measurement": "binding result", "setting": "[2]", "value": "binds more weakly"}]}]}
